Measured values from paper PMC3990709.
Results are given in words; binding and its absence hold for the method and conditions named. Some binding calls cover weakened binding; strength is not graded here.

The chains behind the UniProt entries cited, without tags or fusion partners.
UniProt Q8I4X0: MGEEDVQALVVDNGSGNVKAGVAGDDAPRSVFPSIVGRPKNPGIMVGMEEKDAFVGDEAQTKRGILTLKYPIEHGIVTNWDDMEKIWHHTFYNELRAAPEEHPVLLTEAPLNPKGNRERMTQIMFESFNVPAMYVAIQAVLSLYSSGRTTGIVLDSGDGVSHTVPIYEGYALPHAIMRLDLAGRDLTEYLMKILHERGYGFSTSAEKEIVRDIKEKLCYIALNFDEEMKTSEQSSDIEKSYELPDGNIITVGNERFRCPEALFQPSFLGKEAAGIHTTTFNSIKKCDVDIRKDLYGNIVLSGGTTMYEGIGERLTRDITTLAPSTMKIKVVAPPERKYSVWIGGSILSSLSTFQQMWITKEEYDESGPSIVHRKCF

How the values were obtained:
[1] = target: Plasmodium falciparum actin I (Plasmodium falciparum) (UniProt Q8I4X0); assay: electron microscopy of negatively stained filaments; actin 7–13 µM polymerised overnight at room temperature in polymerisation buffer with 5–7 µM jasplakinolide (JAS); both purified
[2] = target: Plasmodium falciparum actin I (Plasmodium falciparum) (UniProt Q8I4X0); assay: electron microscopy of negatively stained filaments; actin 7–13 µM polymerised overnight at room temperature in polymerisation buffer (50 mM KCl, 2 mM MgCl2, 1 mM ATP final), without JAS; both purified
[3] = target: Plasmodium falciparum actin I (Plasmodium falciparum) (UniProt Q8I4X0); assay: dynamic light scattering; actin I and II at 8.5–24 µM, 298 K, 5 mM HEPES pH 7.5, 0.5 mM ATP, 2 mM DTT, 0.2 mM CaCl2; followed over 48 h at room temperature; both purified
[4] = target: Plasmodium falciparum actin I (Plasmodium falciparum) (UniProt Q8I4X0); assay: native gel or EMSA; native PAGE after 1 h at 298 K without hexokinase and D-glucose (control of the ADP exchange); data not shown; both purified
[5] = target: Plasmodium falciparum actin I (Plasmodium falciparum) (UniProt Q8I4X0); assay: native gel or EMSA; native PAGE with 1 or 5 mM MgCl2, or 5 mM MgCl2 and 50 mM KCl, in the sample; ATP and ADP forms, 0 and 48 h; both purified
[6] = target: Plasmodium falciparum actin I (Plasmodium falciparum) (UniProt Q8I4X0); assay: cryo-EM structure; actin I filaments in vitreous ice; single-particle based helical reconstruction, 25 Å (FSC 0.5); both purified

- binding [1]: binds
- binding [2]: binds
- binding [3]: binds
- binding [4]: binds weakly
- binding [5]: binds
- binding [6]: binds
Substance: Plasmodium falciparum actin I (from UniProt Q8I4X0 1-376)
